# Data: the supplement of paper PMC6411743
# ± gives the standard deviation of the averaged measurements. This is a selection; strong and weak results do not stand in their true shares.
# Assays:
# Test in all cases: NP40-soluble protein abundance relative to vehicle (solubility fold change) (ratio); higher = more soluble protein in presence of AMP-PNP
# [1] = target: T1, A0A0C4DGS5|B7ZC06 and related entries (UniProt Q08379)
# T1 sequence (whole entry): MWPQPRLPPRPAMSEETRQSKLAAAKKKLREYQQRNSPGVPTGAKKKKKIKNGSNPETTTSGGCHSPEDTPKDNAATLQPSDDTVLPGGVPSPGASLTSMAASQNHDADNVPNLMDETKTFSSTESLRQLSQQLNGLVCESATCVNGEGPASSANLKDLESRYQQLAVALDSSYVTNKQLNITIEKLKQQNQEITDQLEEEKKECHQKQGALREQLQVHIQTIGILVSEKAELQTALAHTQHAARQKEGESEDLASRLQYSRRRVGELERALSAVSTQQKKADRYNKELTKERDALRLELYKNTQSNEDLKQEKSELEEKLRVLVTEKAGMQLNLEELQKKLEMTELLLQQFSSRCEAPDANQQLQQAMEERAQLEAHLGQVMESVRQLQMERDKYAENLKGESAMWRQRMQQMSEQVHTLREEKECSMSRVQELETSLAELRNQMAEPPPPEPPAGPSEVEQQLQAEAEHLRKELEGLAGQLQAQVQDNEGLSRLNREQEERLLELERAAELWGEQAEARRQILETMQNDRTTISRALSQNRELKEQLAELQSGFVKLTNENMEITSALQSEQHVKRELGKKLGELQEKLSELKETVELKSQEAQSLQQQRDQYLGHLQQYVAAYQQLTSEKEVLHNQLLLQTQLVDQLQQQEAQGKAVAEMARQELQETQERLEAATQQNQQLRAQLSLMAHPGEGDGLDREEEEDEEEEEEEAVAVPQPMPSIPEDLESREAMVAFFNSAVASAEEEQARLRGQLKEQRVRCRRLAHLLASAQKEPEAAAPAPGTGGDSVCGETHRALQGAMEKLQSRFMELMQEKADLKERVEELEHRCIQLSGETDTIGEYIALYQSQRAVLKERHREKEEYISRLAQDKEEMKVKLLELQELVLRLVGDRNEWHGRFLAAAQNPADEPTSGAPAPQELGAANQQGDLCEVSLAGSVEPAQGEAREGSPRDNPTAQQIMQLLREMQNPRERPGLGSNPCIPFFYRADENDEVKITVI
# Outline: (§1)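 Eight concentrations, 0.1 to 10 mM, were tested on Jurkat crude lysate for 10 min at room temperature and then 3 min at 37 °C, in three independent experiments. The lysate was solubilised with 0.8% NP40 and benzonase, ultracentrifuged, and the supernatant TMT-labelled for LC-MS/MS. Each value is the fold change against the detergent-processed vehicle in its own replicate, from vsn-normalised intensities.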
# [2] = target: T2, A0A0J9YVP6|E9PQ56 and related entries (UniProt Q9UHX1)
# T2 sequence (whole entry): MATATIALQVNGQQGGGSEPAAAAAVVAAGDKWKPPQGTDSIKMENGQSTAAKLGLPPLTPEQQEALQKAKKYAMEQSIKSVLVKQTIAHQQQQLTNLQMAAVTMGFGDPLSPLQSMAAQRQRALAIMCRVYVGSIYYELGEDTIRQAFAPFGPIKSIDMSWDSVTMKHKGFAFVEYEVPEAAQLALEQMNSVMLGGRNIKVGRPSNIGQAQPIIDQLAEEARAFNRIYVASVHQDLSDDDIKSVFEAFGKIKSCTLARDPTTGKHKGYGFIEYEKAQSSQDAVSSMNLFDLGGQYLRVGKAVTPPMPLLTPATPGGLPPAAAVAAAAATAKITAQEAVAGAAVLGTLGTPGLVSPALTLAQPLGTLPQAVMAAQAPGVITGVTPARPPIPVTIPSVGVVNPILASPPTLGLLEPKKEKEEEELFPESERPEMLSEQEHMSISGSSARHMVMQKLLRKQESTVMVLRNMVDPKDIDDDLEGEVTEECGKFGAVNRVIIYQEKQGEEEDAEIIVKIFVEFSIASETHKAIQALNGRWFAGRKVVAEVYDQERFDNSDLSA
# Outline: as §1
# [3] = target: T3, A0A0J9YYJ0|Q8N129 (UniProt Q8N129)
# T3 sequence (whole entry): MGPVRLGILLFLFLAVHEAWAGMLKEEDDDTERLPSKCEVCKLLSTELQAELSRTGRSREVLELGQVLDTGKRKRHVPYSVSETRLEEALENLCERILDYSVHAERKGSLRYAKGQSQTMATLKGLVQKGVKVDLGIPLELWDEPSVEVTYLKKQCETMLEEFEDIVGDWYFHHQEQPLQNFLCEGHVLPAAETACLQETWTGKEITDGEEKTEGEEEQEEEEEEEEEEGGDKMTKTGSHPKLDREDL
# Outline: as §1
# [4] = target: T4, A0A0U1RRH6|O94880 (UniProt O94880)
# T4 sequence (whole entry): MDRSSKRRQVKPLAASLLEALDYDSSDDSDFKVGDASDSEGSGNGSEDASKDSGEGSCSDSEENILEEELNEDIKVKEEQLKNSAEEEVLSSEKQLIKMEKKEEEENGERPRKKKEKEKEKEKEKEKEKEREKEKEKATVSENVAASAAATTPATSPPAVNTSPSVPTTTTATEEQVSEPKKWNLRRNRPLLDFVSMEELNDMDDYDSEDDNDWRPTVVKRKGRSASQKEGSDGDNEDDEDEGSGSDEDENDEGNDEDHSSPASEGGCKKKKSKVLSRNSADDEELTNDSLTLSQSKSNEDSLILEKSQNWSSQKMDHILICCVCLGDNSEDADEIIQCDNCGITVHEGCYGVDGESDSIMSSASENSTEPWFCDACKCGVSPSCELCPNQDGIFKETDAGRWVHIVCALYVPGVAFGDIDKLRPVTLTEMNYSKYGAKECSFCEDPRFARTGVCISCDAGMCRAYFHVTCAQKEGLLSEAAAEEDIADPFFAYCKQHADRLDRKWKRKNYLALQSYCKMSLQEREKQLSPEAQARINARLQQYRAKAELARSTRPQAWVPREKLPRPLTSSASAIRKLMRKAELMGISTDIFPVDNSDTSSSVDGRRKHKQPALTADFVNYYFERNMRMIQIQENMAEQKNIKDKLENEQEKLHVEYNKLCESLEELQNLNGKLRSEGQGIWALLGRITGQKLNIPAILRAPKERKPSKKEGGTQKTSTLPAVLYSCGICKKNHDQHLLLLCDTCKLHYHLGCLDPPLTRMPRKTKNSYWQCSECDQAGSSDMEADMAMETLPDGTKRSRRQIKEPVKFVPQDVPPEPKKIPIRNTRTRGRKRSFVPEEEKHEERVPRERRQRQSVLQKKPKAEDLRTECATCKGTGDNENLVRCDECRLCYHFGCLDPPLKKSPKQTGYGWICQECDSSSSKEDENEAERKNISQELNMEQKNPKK
# Outline: as §1
# [5] = target: T5, UHRF1BP1L (UniProt A0JNW5)
# T5 sequence (whole entry): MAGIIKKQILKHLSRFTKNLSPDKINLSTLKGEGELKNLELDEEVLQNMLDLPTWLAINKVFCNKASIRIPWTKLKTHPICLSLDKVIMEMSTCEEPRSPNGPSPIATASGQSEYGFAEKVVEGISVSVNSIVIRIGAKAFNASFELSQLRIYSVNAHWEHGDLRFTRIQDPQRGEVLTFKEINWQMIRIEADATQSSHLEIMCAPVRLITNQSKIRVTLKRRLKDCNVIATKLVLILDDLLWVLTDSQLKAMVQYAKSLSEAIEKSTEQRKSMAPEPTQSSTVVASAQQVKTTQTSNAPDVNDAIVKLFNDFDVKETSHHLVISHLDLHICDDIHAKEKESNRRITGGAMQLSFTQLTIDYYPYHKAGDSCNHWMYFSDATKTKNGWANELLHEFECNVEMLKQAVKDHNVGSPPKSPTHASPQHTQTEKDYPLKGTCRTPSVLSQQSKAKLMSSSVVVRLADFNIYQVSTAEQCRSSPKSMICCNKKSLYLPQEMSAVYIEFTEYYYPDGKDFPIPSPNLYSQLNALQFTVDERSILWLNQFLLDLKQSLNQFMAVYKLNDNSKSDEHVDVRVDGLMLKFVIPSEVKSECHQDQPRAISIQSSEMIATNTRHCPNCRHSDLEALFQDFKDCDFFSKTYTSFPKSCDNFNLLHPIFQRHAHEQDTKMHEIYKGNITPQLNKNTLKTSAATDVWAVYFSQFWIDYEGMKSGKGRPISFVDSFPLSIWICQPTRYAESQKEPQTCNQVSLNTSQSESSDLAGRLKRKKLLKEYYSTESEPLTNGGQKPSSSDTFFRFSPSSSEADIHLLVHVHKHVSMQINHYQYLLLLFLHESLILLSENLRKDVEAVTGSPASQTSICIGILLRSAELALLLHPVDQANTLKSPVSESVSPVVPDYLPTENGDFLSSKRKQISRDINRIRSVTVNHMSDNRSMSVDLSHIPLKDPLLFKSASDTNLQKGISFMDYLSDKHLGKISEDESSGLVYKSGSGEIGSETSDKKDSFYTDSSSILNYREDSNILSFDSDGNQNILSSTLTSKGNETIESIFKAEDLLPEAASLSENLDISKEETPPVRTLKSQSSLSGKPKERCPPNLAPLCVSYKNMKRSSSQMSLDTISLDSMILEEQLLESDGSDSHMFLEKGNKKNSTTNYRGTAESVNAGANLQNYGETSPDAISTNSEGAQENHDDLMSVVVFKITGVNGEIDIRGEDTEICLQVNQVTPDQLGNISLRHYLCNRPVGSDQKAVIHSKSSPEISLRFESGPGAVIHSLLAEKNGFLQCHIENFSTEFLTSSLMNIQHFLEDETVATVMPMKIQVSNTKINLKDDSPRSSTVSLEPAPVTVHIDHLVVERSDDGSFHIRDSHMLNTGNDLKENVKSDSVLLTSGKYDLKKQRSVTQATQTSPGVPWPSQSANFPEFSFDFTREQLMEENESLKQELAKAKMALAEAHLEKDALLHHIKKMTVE
# Outline: as §1
compound,measurement,setting,value
Nc1ncnc2c1ncn2[C@@H]1O[C@H](COP(=O)(O)OP(=O)(O)NP(=O)(O)O)[C@@H](O)[C@H]1O [adenylyl imidodiphosphate],NP40-soluble protein abundance,[1]; concentration: 6mM,0.975 ± 0.017
same,NP40-soluble protein abundance,[1]; concentration: 8mM,0.9428 ± 0.0076
same,NP40-soluble protein abundance,[1]; concentration: 10mM,0.952 ± 0.028
same,NP40-soluble protein abundance,[2]; concentration: 1mM,1.02 ± 0.019
same,NP40-soluble protein abundance,[2]; concentration: 2mM,1.01 ± 0.032
same,NP40-soluble protein abundance,[2]; concentration: 4mM,1.03 ± 0.017
same,NP40-soluble protein abundance,[2]; concentration: 6mM,1.1 ± 0.027
same,NP40-soluble protein abundance,[2]; concentration: 8mM,1.14 ± 0.051
same,NP40-soluble protein abundance,[2]; concentration: 10mM,1.18 ± 0.037
same,NP40-soluble protein abundance,[3]; concentration: 1mM,1.03 ± 0.031
same,NP40-soluble protein abundance,[3]; concentration: 2mM,1.019 ± 0.0019
same,NP40-soluble protein abundance,[3]; concentration: 4mM,1.001 ± 0.0036
same,NP40-soluble protein abundance,[3]; concentration: 6mM,0.994 ± 0.023
same,NP40-soluble protein abundance,[3]; concentration: 8mM,0.9957 ± 0.0098
same,NP40-soluble protein abundance,[3]; concentration: 10mM,0.992 ± 0.012
same,NP40-soluble protein abundance,[4]; concentration: 1mM,1.02 ± 0.036
same,NP40-soluble protein abundance,[4]; concentration: 2mM,1.07 ± 0.03
same,NP40-soluble protein abundance,[4]; concentration: 4mM,1.14 ± 0.025
same,NP40-soluble protein abundance,[4]; concentration: 6mM,1.21 ± 0.017
same,NP40-soluble protein abundance,[4]; concentration: 8mM,1.27 ± 0.035
same,NP40-soluble protein abundance,[4]; concentration: 10mM,1.36 ± 0.092
same,NP40-soluble protein abundance,[5]; concentration: 1mM,1.02 ± 0.027
same,NP40-soluble protein abundance,[5]; concentration: 2mM,1.01 ± 0.037
same,NP40-soluble protein abundance,[5]; concentration: 4mM,1 ± 0.048
same,NP40-soluble protein abundance,[5]; concentration: 6mM,1 ± 0.056
same,NP40-soluble protein abundance,[5]; concentration: 8mM,0.98 ± 0.059
same,NP40-soluble protein abundance,[5]; concentration: 10mM,1 ± 0.079

# Some of the entries so far, with bars between the fields:
compound | measurement | setting | value
Nc1ncnc2c1ncn2[C@@H]1O[C@H](COP(=O)(O)OP(=O)(O)NP(=O)(O)O)[C@@H](O)[C@H]1O [adenylyl imidodiphosphate] | NP40-soluble protein abundance | [4]; concentration: 4mM | 1.14 ± 0.025
same | NP40-soluble protein abundance | [4]; concentration: 10mM | 1.36 ± 0.092
